Experimental data from PubChem BioAssay AID493014 (National Center for Advancing Translational Sciences (NCATS), 2011).
Among all 340,000 compounds or so, about 170 (0.05%) were called active. Inconclusive means that the source gave no clear call. Such entries were picked first, then a sample of the others. Calls come from the whole dose curve; as a rule, active = well fitted inhibition curve with a large enough effect in the signal ratio, with a control signal flat (not every such curve was filed as active); inconclusive = small, poorly fitted or top-dose-only effect, or effect the other way, or a change in a side signal; inactive = flat fitted curve, though single readings scatter; the % refers to the signal ratio. A potency beside an inconclusive call is a rough fit, not a confirmed value.
Potency is the fitted concentration of half-maximal effect.

Assay: qHTS Assay to Find Inhibitors of Chronic Active B-Cell Receptor Signaling;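 for activity change, negative = inhibition: plate controls were basal doxycycline-induced cells for no effect and cells given 10 µM MG132 for full effect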
Conditions: ABC-DLBCL IkBa-CBG/CBR reporter, luminescence ratio (green luciferase fused to IkBa over red control in TMD8 lymphoma cells), 4 h; activity change, negative = inhibition: at 46.1 µM (top of the series) unless noted
Method in brief: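 Compounds up to 46 uM were incubated four hours with TMD8 cells whose green CBG68 luciferase is fused to IkappaBalpha; red CBR luminescence normalised the signal, and concentration-effect curves were fitted to fusion, red and ratio data.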
With `O=C(Cc1ccc(Cl)cc1Cl)OCC(=O)c1ccc[nH]1` the activity change, negative = inhibition was inconclusive: -3.36%. For `COc1ccc2nc(-c3ccccn3)[nH]c2c1`, the activity change, negative = inhibition was inconclusive: -16.8%. In the case of `O=C(NCc1ccccc1)C12CN(Cc3ccccc3)CC1C(c1cccc([N+](=O)[O-])c1)=NO2` (stereo not drawn), the “activity change, negative = inhibition” value is reported as inactive: 2.12%. In the case of `COCCN1C(=O)/C(=C/c2ccc(N3CCCC3)cc2C)SC1=S`, the “activity change, negative = inhibition” value is reported as inactive: -6.06%. For `CN(CC(=O)Nc1ccc(C(N)=O)cc1)S(=O)(=O)c1ccc2c(c1)OCCO2`, the Potency was inconclusive: 25.9 µM [falling, partial curve, poor fit]. With `COc1ccc(-c2nc3nc(C)c(Cc4ccccc4)c(=O)n3[nH]2)cc1` the Potency was inconclusive: 5.8 µM [rising, full curve, poor fit]. With `CCOc1nc2ccccc2cc1/C=C/C(=O)O` the activity change, negative = inhibition was inconclusive: 4.39%. With `CCN1CCN(C(=O)c2cn(CCOC)c(=O)c3c2c2ccccc2n3C)CC1` the activity change, negative = inhibition was inconclusive: 10.7%. In the case of `Cc1cc(-c2ccccc2)nn1-c1nc2c(c(=O)[nH]c(=O)n2C)n1C`, the activity change, negative = inhibition is reported as inconclusive: 2.22%. With `COCCn1c(=O)[nH]c2cc(C(=O)Nc3cccc(C(C)=O)c3)ccc2c1=O` the activity change, negative = inhibition was inconclusive: 7.83%. With `COc1ccc(CN(C)S(=O)(=O)c2nnc(NC(=O)c3cccc(F)c3)s2)cc1` the Potency was inconclusive: 4.47 µM [rising, partial curve, poor fit]. With `COc1ccc(Cl)cc1NC(=O)CN1C(=O)CCS(=O)(=O)c2ccccc21` the activity change, negative = inhibition was inconclusive: -13.9%. For `COc1ccc(C(=O)NCCc2c[nH]c3ccccc23)cc1OC`, the activity change, negative = inhibition was inconclusive: 3.36%. For `COc1ccc2[nH]c(=O)c(CN(C(=O)COc3ccccc3)C(C)C)cc2c1`, the activity change, negative = inhibition was inconclusive: 0.581%. With `N#Cc1ccc(OCC(O)CN2CCN(c3ncc(C(F)(F)F)cc3Cl)CC2)cc1` (stereo not drawn) the “activity change, negative = inhibition” value was inactive: -9.47%. For `Cc1cc(C)c2oc(C(=O)Nc3ccc(S(=O)(=O)Nc4nccc(C)n4)cc3)cc(=O)c2c1`, the activity change, negative = inhibition was inconclusive: -4.73%. With `O=C(Nc1nc2ccccc2s1)c1ccc([N+](=O)[O-])o1` the Potency was inconclusive: 31.6 µM [falling, partial curve]. With `CC(C(=O)O/N=C(\N)c1ccccn1)c1ccc([N+](=O)[O-])cc1` (stereo not drawn) the Potency was inconclusive: 8.91 µM [falling, partial curve]. For `COc1ccc(-c2oc3cccnc3c2C#CCO)cc1`, the activity change, negative = inhibition was inconclusive: 25.1%. For `COc1ccccc1-c1cc(C(=O)NC(C)c2ccccc2)no1` (stereo not drawn), the Potency was inconclusive: 22.4 µM [falling, partial curve]. In the case of `O=C(CSCc1ccc(F)cc1)Nc1nc2c(s1)CCCC2`, the activity change, negative = inhibition is reported as inconclusive: 6.59%. For `CCCc1nc(SCC(=O)Nc2nc3c(s2)CCCC3)c2ccccc2n1`, the “activity change, negative = inhibition” value was inactive: 4.05%. For `O=C(Cc1ccc(Nc2nc(=S)[nH]c3ccccc23)cc1)NC1CCCCC1`, the “activity change, negative = inhibition” value was inactive: -2.23%. For `Cc1cc(C)n(Cc2ccc(C(=O)N/N=C/c3ccc(-c4ccc([N+](=O)[O-])cc4)o3)o2)n1`, the activity change, negative = inhibition was inconclusive: 10.3%. For `O=C(NCc1cc(C(F)(F)F)cc(C(F)(F)F)c1)C12CN(Cc3ccccc3)CC1C(c1cccc([N+](=O)[O-])c1)=NO2` (stereo not drawn), the “activity change, negative = inhibition” value was inactive: 5.2%. For `Cc1ccc(Oc2nc3ccccc3n3cccc23)cc1`, the activity change, negative = inhibition was inconclusive: 12.7%. In the case of `CCOc1ccc(NC(=O)N(CCN(C)C)C(C)c2cccnc2)cc1` (stereo not drawn), the activity change, negative = inhibition is reported as inconclusive: 7.27%. For `Cc1ccccc1C(=O)N/N=C1\SCC(=O)N1Cc1ccco1`, the “activity change, negative = inhibition” value was inactive: -11.4%. In the case of `Cc1ccccc1OCC(=O)NN1Cc2ccccc2C1=N`, the activity change, negative = inhibition is reported as inconclusive: 17.7%. In the case of `COc1ccc(CCNc2oc(-c3ccccc3OC)nc2C#N)cc1`, the activity change, negative = inhibition is reported as inconclusive: -6.41%. In the case of `CC(C)n1cc(CN2CCCC(C(=O)Nc3ccccc3Oc3cccnc3)C2)cn1` (stereo not drawn), the “activity change, negative = inhibition” value is reported as inactive: -0.442%. With `Cc1ccc(Cl)cc1N1CCN(C(=O)c2ccc(CS(=O)Cc3ccc(Cl)cc3)o2)CC1` (stereo not drawn) the Potency was inconclusive: 20 µM [falling, single point]. For `CCOC(=O)c1cc(C(=O)Nc2cccc(C)c2)nn1C`, the Potency was inconclusive: 31.6 µM [rising, single point]. With `Nc1nonc1-n1nnc(C(=O)N/N=C/c2ccc(Cl)cc2Cl)c1CN1CCOCC1` the “activity change, negative = inhibition” value was inactive: 3.57%. For `CC(=O)NCCOc1cccc2ccccc12`, the activity change, negative = inhibition was inconclusive: 0.134%. In the case of `COc1cccc(NC(=S)NN=C2CCCCCC2)c1`, the Potency is reported as inconclusive: 20 µM [cytotoxic, single point]. For `Cc1ccc(SCC(=O)Nc2ncc(C)s2)cc1`, the activity change, negative = inhibition was inconclusive: 4.84%. For `COc1ccc(-c2noc(CSc3nc(N)cc(=O)[nH]3)n2)cc1OC`, the activity change, negative = inhibition was inconclusive: -1.31%. For `O=C(NC1CC(=O)N(c2ccc(Cl)cc2)C1)c1ccc(S(=O)(=O)N2CCOCC2)cc1` (stereo not drawn), the “activity change, negative = inhibition” value was inactive: -0.825%. In the case of `O=C(COc1ccc(C(=O)c2ccccc2)cc1)NCc1ccc(F)cc1`, the Potency is reported as inconclusive: 5.8 µM [falling, full curve]. For `O=C(COC(=O)c1ccccc1Cl)Nc1cccnc1Cl`, the Potency was inconclusive: 20.6 µM [falling, single point]. For `COCCN(C(=O)Cn1nnc2ccccc21)C(C(=O)NC1CCCC1)c1cc(OC)ccc1OC` (stereo not drawn), the Potency was inconclusive: 6.51 µM [rising, partial curve, poor fit]. With `CCOC(=O)Cc1csc(NC(=O)COc2ccccc2)n1` the activity change, negative = inhibition was inconclusive: 12%. With `CNc1cc([N+](=O)[O-])ccc1OCc1ccccc1` the activity change, negative = inhibition was inconclusive: 0.214%. With `O=C(CNC(=O)c1ccc(-c2ccccc2)cc1)OCc1ccc(Br)cc1` the activity change, negative = inhibition was inconclusive: 19.2%. In the case of `N#Cc1cc(-c2ccccc2)nnc1Sc1ccccc1`, the activity change, negative = inhibition is reported as inconclusive: 17.3%. For `Cc1ccc(/C=N/NC(=O)NC2CCCCC2)o1`, the activity change, negative = inhibition was inconclusive: 120%. With `CCOc1ccc(N2C(=O)c3cccnc3C2Nc2ccc(F)cc2)cc1` (stereo not drawn) the Potency was inconclusive: 11.2 µM [falling, partial curve]. In the case of `COc1cccc(-c2ccc(SCC(=O)c3ccccc3)nn2)c1`, the Potency is reported as inconclusive: 35.5 µM [falling, single point]. For `Cc1ccc(/C=C2/SC(=S)N(CCC(=O)N3CCN(c4ccccc4)CC3)C2=O)cc1`, the Potency was inconclusive: 20.6 µM [falling, single point]. In the case of `Cc1ccc(NC(=O)COC(=O)CN2CSCC2=O)cc1C`, the activity change, negative = inhibition is reported as inconclusive: 12.3%. In the case of `OCc1cn(-c2ccccc2)nc1-c1cccnc1`, the “activity change, negative = inhibition” value is reported as inactive: 8.95%. With `COC(=O)c1ccc2[nH]c(CO)c(-c3ccccc3)c2c1` the Potency was inconclusive: 17.8 µM [falling, single point]. In the case of `CCc1ccc(NC(=O)CCCn2nc(CC)n3c(cc4occc43)c2=O)cc1`, the “activity change, negative = inhibition” value is reported as inactive: -4.13%. With `CCN(CC)CCN(C)C1CCC(c2ccccc2)CC1` (stereo not drawn) the activity change, negative = inhibition was inconclusive: -5.93%. In the case of `Cc1nc(-c2ccc(S(=O)(=O)Nc3ccc(Br)cc3Cl)s2)cs1`, the activity change, negative = inhibition is reported as inconclusive: 12.9%. For `CC(C)C(C(=O)O)N1C(=O)/C(=C/C=C/c2ccco2)SC1=S` (stereo not drawn), the activity change, negative = inhibition was inconclusive: 11.4%. In the case of `C=CCOC(=O)C1=C[C@@H](C2CCCCC2)C[C@@H](OCc2ccc(CO)cc2)O1`, the activity change, negative = inhibition is reported as inconclusive: 11.1%. In the case of `CCOC(=O)CC1CCCCN1C(=O)CCCn1nnnc1CN1CCC(C)CC1` (stereo not drawn), the “activity change, negative = inhibition” value is reported as inactive: 0.461%. With `Cc1ccc(C)c(S(=O)(=O)N2CCCOC2CNC(=O)C(=O)NCc2ccncc2)c1` (stereo not drawn) the activity change, negative = inhibition was inconclusive: -5.36%. For `Cc1cccc(NC(=O)CSc2c3c(nc4ccccc24)CCC3)n1`, the activity change, negative = inhibition was inconclusive: 12.6%. For `CCC(C)Sc1cccc(-c2nc3cc(C)ccn3c2NCc2ccccc2)c1` (stereo not drawn), the activity change, negative = inhibition was inconclusive: 8.55%. With `Cc1ccc2sc(N(CCCN(C)C)C(=O)c3nc4ccccc4s3)nc2c1C` the “activity change, negative = inhibition” value was inactive: -12.3%. In the case of `COc1ccc(-c2nc(CN3CCCCC3c3cccnc3)c(C)o2)c(F)c1` (stereo not drawn), the Potency is reported as inconclusive: 17.8 µM [rising, single point]. In the case of `Cc1nc(NC(=S)Nc2ccccc2)sc1C`, the Potency is reported as inconclusive: 3.16 µM [cytotoxic, partial curve, poor fit]. For `COc1cc(/C=C/C(=O)N(Cc2ccccc2)c2ccccn2)cc(OC)c1OC`, the activity change, negative = inhibition was inconclusive: -0.95%. In the case of `CCCCn1c(-c2cccs2)nc2nc3ccccc3nc21`, the “activity change, negative = inhibition” value is reported as inactive: 19.1%. In the case of `Cc1nc(NC(=O)/C=C/c2ccccc2)n[nH]1`, the activity change, negative = inhibition is reported as inconclusive: -16.4%. For `O=C(CCN1C(=O)c2ccccc2C1=O)Nc1ccccn1`, the activity change, negative = inhibition was inconclusive: -4.16%. With `Cc1cccc(NC2=CC(=O)OC(C)C2)c1` (stereo not drawn) the “activity change, negative = inhibition” value was inactive: -6.58%. In the case of `CCOc1ncccc1C(=O)Nc1cccc(S(=O)(=O)N2CCCCC2)c1`, the activity change, negative = inhibition is reported as inconclusive: 9.82%. With `CCOC(=O)c1sc(NC(=O)CSc2ncn[nH]2)c(C#N)c1C` the activity change, negative = inhibition was inconclusive: 4.25%. With `COC(=O)C1(Cc2cc(-c3cccnc3)no2)CCN(C(=O)OC(C)(C)C)CC1` the “activity change, negative = inhibition” value was inactive: 12.8%. In the case of `CNS(=O)(=O)c1cc2c3c(cccc3c1)C(=O)NC2=O`, the “activity change, negative = inhibition” value is reported as inactive: 1.71%. In the case of `COc1ccc2c(CC(=O)Nc3ncc(C)s3)coc2c1`, the Potency is reported as inconclusive: 12.6 µM [rising, single point]. In the case of `CCc1nnc(NC(=O)CSc2nc(C)cs2)s1`, the “activity change, negative = inhibition” value is reported as inactive: 0.716%. For `CCOC(=O)C(C)Sc1ncnc2c1nnn2-c1ccc(F)cc1` (stereo not drawn), the Potency was inconclusive: 35.5 µM [falling, single point]. With `Cc1ccc(S(=O)(=O)NCCn2nc(C)nc2C)cc1` the “activity change, negative = inhibition” value was inactive: -5.09%. With `N#Cc1c(NC(=O)c2cccnc2)sc2c1CCC2` the Potency was inconclusive: 29.1 µM [falling, single point]. For `Cc1cc(-c2ccc(C)c(S(=O)(=O)NCCCN3CCN(c4ccccc4)CC3)c2)on1`, the activity change, negative = inhibition was inconclusive: -7.18%. With `COCc1cc(=O)n2[nH]c(-c3ccc(C)cc3)cc2n1` the Potency was inconclusive: 2.06 µM [falling, partial curve]. For `CCn1c(=O)c2ccccc2n(Cc2cccc(C)c2)c1=O`, the “activity change, negative = inhibition” value was inactive: 3.19%. For `CN(C)c1ccc(/C=N/NC(=O)c2nnn(-c3nonc3N)c2CN(C)c2ccccc2)cc1`, the “activity change, negative = inhibition” value was inactive: -2.08%.
